PubChem BioAssay AID652272, Drosophila RNAi Screening Center – 2013
Test: 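Finding fly genes that regulate Hedgehog signal transduction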 (primary screen). Cell system: Drosophila clone 8 (Cl8) cells. Reagents: long dsRNA against Drosophila genes. Detection: 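Plate reader light from a firefly reporter under a ptc promoter fragment that responds to Hedgehog, with Renilla light as transfection reference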. Reading the numbers: firefly Hh reporter signal: higher = more ptc reporter light; Renilla reference signal: higher = more Renilla control light. Call rule: 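Called a hit if the two-replicate mean z-score lies below -2 or above +3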. Calls: active = hit: reporter lowered or raised; inactive = not a hit.
In all, the deposit lists about 21,000 reagents; below is a random part of those that have a named target and a result. Over the whole deposit, 503 (2.4%) are marked active. 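Raw plate light values, not normalised; calls rest on replicate z-scores that were not deposited; hits include reporter decreases as well as increases.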 Reagents against one gene are numbered here. A plus sign joins genes that one reagent is predicted to hit. The record does not give: the amount of reagent, the time to read-out.

The first 4 records as a preview:
Target gene	reagent no.	firefly Hh reporter signal, replicate 1	firefly Hh reporter signal, replicate 2	firefly Hh reporter signal, replicate 3	Renilla reference signal, replicate 1	Renilla reference signal, replicate 2	outcome
SP1173	1	47017	55668		2306	2034	inactive
CG13972	1	1.01e5	72305		1746	2160	inactive
mtgo	1	2.27e5	3.53e5	70748	5411	22544	inactive
mtgo	2	4.30e5	6.30e5	1.57e5	29079	3724	inactive

The list itself, repeating the preview:
Target gene	reagent no.	firefly Hh reporter signal, replicate 1	firefly Hh reporter signal, replicate 2	firefly Hh reporter signal, replicate 3	Renilla reference signal, replicate 1	Renilla reference signal, replicate 2	outcome
SP1173	1	47017	55668		2306	2034	inactive
CG13972	1	1.01e5	72305		1746	2160	inactive
mtgo	1	2.27e5	3.53e5	70748	5411	22544	inactive
mtgo	2	4.30e5	6.30e5	1.57e5	29079	3724	inactive
mtgo	3	70717	51575		3712	2736	inactive
vari	1	72384	59001		1863	4865	inactive
CG1387	1	83410	79715		2052	1684	inactive
CG13133	1	1.17e5	67233		3011	6761	inactive
LysD + LysB + LysC (retired record)	1	77228	2.37e5		2805	9011	inactive
Mur11Da	1	7.67e5	3.01e5		33789	4679	inactive
ND-B18	1	75675	2.05e5		2272	8208	inactive
CG4839	1	1.20e5	57034		3909	2572	inactive
CG4839	2	92010	54070		2123	4691	inactive
Mad1	1	94240	83728		4759	3109	inactive
Grl43a	1	82629	38549		2246	3661	inactive
Klp98A	1	1.63e5	1.45e5		3203	3456	inactive
Ance-3	1	1.94e5	73001		4909	6155	inactive
Ance-3	2	1.09e5	59053		2938	5373	inactive
Noc1	1	1.00e5	41271		5608	2184	inactive
CG6933	1	93121	1.21e5		4024	4928	inactive
mus302	1	1.43e5			3169	3712	inactive
CG12511	1	1.10e5	99649		3211	8779	inactive
Vav	1	93444	2.98e5		2628	12496	inactive
CG1146	1	88794	69378		4210	2930	inactive
CR43999 (retired record)	1	5.73e5	1.31e5		30474	4217	inactive
Rgk3	1	1.29e5	6.28e5	80932	3251	34807	inactive
Rgk3	2	1.39e5	89346		3437	8451	inactive
Rgk3	3	87030	57493		2304	6007	inactive
Rgk3	4	1.05e5	58265		2781	5776	inactive
mbf1	1	1.50e5	1.13e5		5500	3883	inactive
CG32473	1	1.03e5	82832		2748	1992	inactive
CG32473	2	1.97e5	1.10e5		7629	2618	inactive
CG34167	1	1.02e5	2.03e5		3276	8690	inactive
hh	1	5.67e5	1.00e5		37602	4008	inactive
asRNA:CR43470 + CG14830	1	56922	51852		5925	3905	inactive
CG6983	1	1.07e5	80796		4880	3301	inactive
nAChRbeta2	1	1.31e5	89253		4874	3088	inactive
Noa36	1	1.44e5	1.16e5		3307	2672	inactive
msk	1	1.16e5	73464		5648	3360	inactive
